The record followed here is patent US11084781B2, “Diarylureas as CB1 allosteric modulators” (Research Triangle Institute, priority 2017, dated 2021).

By UniProt entry, the sequences of proteins in these tests, tags left out.
UniProt P21554, whole entry: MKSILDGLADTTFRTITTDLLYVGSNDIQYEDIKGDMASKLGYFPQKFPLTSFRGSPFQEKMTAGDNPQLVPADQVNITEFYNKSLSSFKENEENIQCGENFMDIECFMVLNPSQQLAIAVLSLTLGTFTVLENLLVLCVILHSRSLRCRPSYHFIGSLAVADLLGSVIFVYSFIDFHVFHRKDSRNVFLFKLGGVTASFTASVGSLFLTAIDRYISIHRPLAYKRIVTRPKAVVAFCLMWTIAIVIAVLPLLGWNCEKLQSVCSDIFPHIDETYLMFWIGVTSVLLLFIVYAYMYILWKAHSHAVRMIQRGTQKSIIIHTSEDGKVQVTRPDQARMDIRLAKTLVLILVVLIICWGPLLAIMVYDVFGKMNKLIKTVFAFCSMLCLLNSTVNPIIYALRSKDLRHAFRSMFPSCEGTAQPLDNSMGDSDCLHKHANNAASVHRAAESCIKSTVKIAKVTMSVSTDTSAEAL

Assay [1] deals with T1, human CB1 receptor (Homo sapiens, UniProt P21554). Nature of the assay: CB1 calcium mobilization assay (antagonist mode, against EC80 of CP55,940). The format is cell-based. The settings on record: read-out: CB1 calcium assay IC50; Table 2; against EC80 (100 nM) of CP55,940; mean ± S.E.M.
Assay [2] has as its target T1, human CB1 receptor. Put plainly: CB1 calcium mobilization assay, agonist screen. Format: cell-based. As to conditions: Table 2; 10,000 nM final concentration; mean ± SD. A general note: A change in cytosolic calcium serves as a functional read-out for many receptors and channels.

Each structure is given as a SMILES string. The match of structure and compound is tentative.

The IC50 is the midpoint of a concentration-inhibition curve.

Regarding `O=C(Nc1ccc(Cl)cc1)Nc1ccc(-c2cccc(N3CCCC3)n2)cc1`, the IC50 on human CB1 receptor [1] amounted to 219 nM. Further, the “CB1 calcium assay Agonist screen (% CP55, 940 Emax)” value on human CB1 receptor [2] is recorded as 23 ± 5 % CP55, 940 Emax.
